# According to the supplement of paper PMC8728848:
# The other results are listed elsewhere or left out.
# B1: EfCBM33A (Enterococcus faecalis), Q838S1 (protein)
# chain: MKKSLLTIVLAFSFVLGGAALAPTVSEAHGYVASPGSRAFFGSSAGGNLNTNVGRAQWEPQSIEAPKNTFITGKLASAGVSGFEPLDEQTATRWHKTNITTGPLDITWNLTAQHRTASWDYYITKNGWNPNQPLDIKNFDKIASIDGKQEVPNKVVKQTINIPTDRKGYHVIYAVWGIGDTVNAFYQAIDVNIQ
# Tests used:
# Assay in all cases: glycan array binding signal (z-score within array); higher = stronger binding
# Conditions in all cases: glycan notation: IUPAC condensed, linker removed
# [1] = target: GlcNAc(b1-3)Gal(b1-3)GalNAc
# Outline: (§1)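 Glycan array data came from 3228 arrays in the Consortium for Functional Glycomics database, and only arrays with an available protein sequence were kept. Glycan names were put into IUPAC-condensed notation, and columns mapping to the same glycan were averaged. The binding signal is a within-array Z-score, averaged across arrays of one protein sequence run at different concentrations or buffers and across linkers. A negative Z-score can be read as non-binding.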
# [2] = target: GlcNAc(b1-3)Gal(b1-4)Glc
# Outline: as §1
# [3] = target: GlcNAc(b1-3)Gal(b1-4)GlcNAc
# Outline: as §1
# [4] = target: GlcNAc(b1-3)Gal(b1-4)GlcNAc(b1-2)Man(a1-3)[GlcNAc(b1-3)Gal(b1-4)GlcNAc(b1-2)Man(a1-6)]Man(b1-4)GlcNAc(b1-4)GlcNAc
# Outline: as §1
# [5] = target: GlcNAc(b1-3)Gal(b1-4)GlcNAc(b1-2)Man(a1-3)[GlcNAc(b1-3)Gal(b1-4)GlcNAc(b1-2)Man(a1-6)]Man(b1-4)GlcNAc(b1-4)[Fuc(a1-6)]GlcNAc
# Outline: as §1
# [6] = target: GlcNAc(b1-3)Gal(b1-4)GlcNAc(b1-2)[GlcNAc(b1-3)Gal(b1-4)GlcNAc(b1-6)]Man(a1-6)[GlcNAc(b1-3)Gal(b1-4)GlcNAc(b1-2)Man(a1-3)]Man(b1-4)GlcNAc(b1-4)GlcNAc
# Outline: as §1
# [7] = target: GlcNAc(b1-3)Gal(b1-4)GlcNAc(b1-3)Gal(b1-4)GlcNAc
# Outline: as §1
# [8] = target: GlcNAc(b1-3)Gal(b1-4)GlcNAc(b1-3)Gal(b1-4)GlcNAc(b1-2)Man(a1-3)[GlcNAc(b1-3)Gal(b1-4)GlcNAc(b1-3)Gal(b1-4)GlcNAc(b1-2)Man(a1-6)]Man(b1-4)GlcNAc(b1-4)GlcNAc
# Outline: as §1
# [9] = target: GlcNAc(b1-3)Gal(b1-4)GlcNAc(b1-3)Gal(b1-4)GlcNAc(b1-2)Man(a1-3)[GlcNAc(b1-3)Gal(b1-4)GlcNAc(b1-3)Gal(b1-4)GlcNAc(b1-2)Man(a1-6)]Man(b1-4)GlcNAc(b1-4)[Fuc(a1-6)]GlcNAc
# Outline: as §1
# [10] = target: GlcNAc(b1-3)Gal(b1-4)GlcNAc(b1-3)Gal(b1-4)GlcNAc(b1-2)[GlcNAc(b1-3)Gal(b1-4)GlcNAc(b1-3)Gal(b1-4)GlcNAc(b1-6)]Man(a1-6)[GlcNAc(b1-3)Gal(b1-4)GlcNAc(b1-3)Gal(b1-4)GlcNAc(b1-2)Man(a1-3)]Man(b1-4)GlcNAc(b1-4)[Fuc(a1-6)]GlcNAc
# Outline: as §1
# [11] = target: GlcNAc(b1-3)Gal(b1-4)GlcNAc(b1-3)Gal(b1-4)GlcNAc(b1-3)Gal(b1-4)GlcNAc(b1-2)Man(a1-3)[GlcNAc(b1-3)Gal(b1-4)GlcNAc(b1-3)Gal(b1-4)GlcNAc(b1-3)Gal(b1-4)GlcNAc(b1-2)Man(a1-6)]Man(b1-4)GlcNAc(b1-4)GlcNAc
# Outline: as §1
# [12] = target: GlcNAc(b1-3)Gal(b1-4)GlcNAc(b1-3)Gal(b1-4)GlcNAc(b1-3)Gal(b1-4)GlcNAc(b1-2)Man(a1-3)[GlcNAc(b1-3)Gal(b1-4)GlcNAc(b1-3)Gal(b1-4)GlcNAc(b1-3)Gal(b1-4)GlcNAc(b1-2)Man(a1-6)]Man(b1-4)GlcNAc(b1-4)[Fuc(a1-6)]GlcNAc
# Outline: as §1
# [13] = target: GlcNAc(b1-3)Gal(b1-4)GlcNAc(b1-3)Gal(b1-4)GlcNAc(b1-3)Gal(b1-4)GlcNAc(b1-2)[GlcNAc(b1-3)Gal(b1-4)GlcNAc(b1-3)Gal(b1-4)GlcNAc(b1-3)Gal(b1-4)GlcNAc(b1-6)]Man(a1-6)[GlcNAc(b1-3)Gal(b1-4)GlcNAc(b1-3)Gal(b1-4)GlcNAc(b1-3)Gal(b1-4)GlcNAc(b1-2)Man(a1-3)]Man(b1-4)GlcNAc(b1-4)[Fuc(a1-6)]GlcNAc
# Outline: as §1
# [14] = target: GlcNAc(b1-3)Gal(b1-4)GlcNAc(b1-3)Gal(b1-4)GlcNAc(b1-3)Gal(b1-4)GlcNAc(b1-3)Gal(b1-4)GlcNAc(b1-2)Man(a1-3)[GlcNAc(b1-3)Gal(b1-4)GlcNAc(b1-3)Gal(b1-4)GlcNAc(b1-3)Gal(b1-4)GlcNAc(b1-3)Gal(b1-4)GlcNAc(b1-2)Man(a1-6)]Man(b1-4)GlcNAc(b1-4)GlcNAc
# Outline: as §1
# [15] = target: GlcNAc(b1-3)Gal(b1-4)GlcNAc(b1-3)Gal(b1-4)GlcNAc(b1-3)Gal(b1-4)GlcNAc(b1-3)Gal(b1-4)GlcNAc(b1-2)Man(a1-3)[GlcNAc(b1-3)Gal(b1-4)GlcNAc(b1-3)Gal(b1-4)GlcNAc(b1-3)Gal(b1-4)GlcNAc(b1-3)Gal(b1-4)GlcNAc(b1-2)Man(a1-6)]Man(b1-4)GlcNAc(b1-4)[Fuc(a1-6)]GlcNAc
# Outline: as §1
# [16] = target: GlcNAc(b1-3)Gal(b1-4)GlcNAc(b1-3)Gal(b1-4)GlcNAc(b1-3)Gal(b1-4)GlcNAc(b1-3)Gal(b1-4)GlcNAc(b1-2)[GlcNAc(b1-3)Gal(b1-4)GlcNAc(b1-3)Gal(b1-4)GlcNAc(b1-3)Gal(b1-4)GlcNAc(b1-3)Gal(b1-4)GlcNAc(b1-6)]Man(a1-6)[GlcNAc(b1-3)Gal(b1-4)GlcNAc(b1-3)Gal(b1-4)GlcNAc(b1-3)Gal(b1-4)GlcNAc(b1-3)Gal(b1-4)GlcNAc(b1-2)Man(a1-3)]Man(b1-4)GlcNAc(b1-4)[Fuc(a1-6)]GlcNAc
# Outline: as §1
# [17] = target: GlcNAc(b1-3)Gal(b1-4)GlcNAc(b1-3)Gal(b1-4)GlcNAc(b1-3)GalNAc
# Outline: as §1
# [18] = target: GlcNAc(b1-3)Gal(b1-4)GlcNAc(b1-3)GalNAc
# Outline: as §1
# [19] = target: GlcNAc(b1-3)Gal(b1-4)GlcNAc(b1-3)[GlcNAc(b1-3)Gal(b1-4)GlcNAc(b1-3)]GalNAc
# Outline: as §1
# [20] = target: GlcNAc(b1-3)Gal(b1-4)GlcNAc(b1-6)[Gal(b1-3)]GalNAc
# Outline: as §1
# [21] = target: GlcNAc(b1-3)Gal(b1-4)GlcNAc(b1-6)[GlcNAc(b1-3)Gal(b1-3)]GalNAc
# Outline: as §1
# [22] = target: GlcNAc(b1-3)Gal(b1-4)GlcNAc(b1-6)[GlcNAc(b1-3)]Gal(b1-4)GlcNAc
# Outline: as §1
# [23] = target: GlcNAc(b1-3)GalNAc
# Outline: as §1
# [24] = target: GlcNAc(b1-3)Man
# Outline: as §1
# [25] = target: GlcNAc(b1-3)[GlcNAc(b1-4)][GlcNAc(b1-6)]GlcNAc
# Outline: as §1
# [26] = target: GlcNAc(b1-3)[GlcNAc(b1-6)]Gal(b1-4)GlcNAc
# Outline: as §1
# [27] = target: GlcNAc(b1-3)[GlcNAc(b1-6)]GalNAc
# Outline: as §1
# [28] = target: GlcNAc(b1-4)Gal(b1-4)GlcNAc
# Outline: as §1
# [29] = target: GlcNAc(b1-4)GlcNAc
# Outline: as §1
# [30] = target: GlcNAc(b1-4)GlcNAc(b1-4)GlcNAc
# Outline: as §1
# [31] = target: GlcNAc(b1-4)GlcNAc(b1-4)GlcNAc(b1-4)GlcNAc(b1-4)GlcNAc
# Outline: as §1
# [32] = target: GlcNAc(b1-4)GlcNAc(b1-4)GlcNAc(b1-4)GlcNAc(b1-4)GlcNAc(b1-4)GlcNAc
# Outline: as §1
# [33] = target: GlcNAc(b1-4)[GlcNAc(b1-6)]GalNAc
# Outline: as §1
# [34] = target: GlcNAc(b1-6)Gal(b1-4)GlcNAc
# Outline: as §1
# [35] = target: GlcNAc(b1-6)GalNAc
# Outline: as §1
# [36] = target: GlcNAc6S(b1-3)Gal(b1-4)GlcNAc
# Outline: as §1
# [37] = target: Kdn(a2-3)Gal(b1-3)GalNAc
# Outline: as §1
# [38] = target: Kdn(a2-3)Gal(b1-3)GlcNAc
# Outline: as §1
# [39] = target: Kdn(a2-3)Gal(b1-4)Glc
# Outline: as §1
# [40] = target: Kdn(a2-3)Gal(b1-4)GlcNAc
# Outline: as §1
# [41] = target: Kdn(a2-3)Gal(b1-4)[Fuc(a1-3)]GlcNAc
# Outline: as §1
# [42] = target: Kdn(a2-6)Gal(b1-4)GlcNAc
# Outline: as §1
# [43] = target: Man(a1-2)Man(a1-2)Man(a1-3)Man
# Outline: as §1
# [44] = target: Man(a1-2)Man(a1-2)Man(a1-6)[Man(a1-3)]Man
# Outline: as §1
# [45] = target: Man(a1-2)Man(a1-3)Man
# Outline: as §1
binder,measurement,setting,value
B1,glycan array binding signal (z-score),[1],0.666
same,glycan array binding signal (z-score),[2],-0.475
same,glycan array binding signal (z-score),[3],-0.604
same,glycan array binding signal (z-score),[4],-0.031
same,glycan array binding signal (z-score),[5],0.113
same,glycan array binding signal (z-score),[6],2.03
same,glycan array binding signal (z-score),[7],-0.171
same,glycan array binding signal (z-score),[8],0.794
same,glycan array binding signal (z-score),[9],0.272
same,glycan array binding signal (z-score),[10],0.957
same,glycan array binding signal (z-score),[11],0.649
same,glycan array binding signal (z-score),[12],0.39
same,glycan array binding signal (z-score),[13],1.26
same,glycan array binding signal (z-score),[14],0.549
same,glycan array binding signal (z-score),[15],4.24
same,glycan array binding signal (z-score),[16],1.38
same,glycan array binding signal (z-score),[17],0.242
same,glycan array binding signal (z-score),[18],0.02
same,glycan array binding signal (z-score),[19],0.187
same,glycan array binding signal (z-score),[20],0.986
same,glycan array binding signal (z-score),[21],-0.633
same,glycan array binding signal (z-score),[22],0.14
same,glycan array binding signal (z-score),[23],-0.018
same,glycan array binding signal (z-score),[24],-0.525
same,glycan array binding signal (z-score),[25],-1.08
same,glycan array binding signal (z-score),[26],-0.392
same,glycan array binding signal (z-score),[27],-0.941
same,glycan array binding signal (z-score),[28],-0.997
same,glycan array binding signal (z-score),[29],-0.683
same,glycan array binding signal (z-score),[30],-0.852
same,glycan array binding signal (z-score),[31],-1.5
same,glycan array binding signal (z-score),[32],0.083
same,glycan array binding signal (z-score),[33],-1.06
same,glycan array binding signal (z-score),[34],0.278
same,glycan array binding signal (z-score),[35],-0.171
same,glycan array binding signal (z-score),[36],-0.765
same,glycan array binding signal (z-score),[37],0.216
same,glycan array binding signal (z-score),[38],0.484
same,glycan array binding signal (z-score),[39],-0.213
same,glycan array binding signal (z-score),[40],1.86
same,glycan array binding signal (z-score),[41],-0.769
same,glycan array binding signal (z-score),[42],0.328
same,glycan array binding signal (z-score),[43],-0.162
same,glycan array binding signal (z-score),[44],-0.018
same,glycan array binding signal (z-score),[45],-1.02

# For reference, some entries already given.
binder,measurement,setting,value
B1,glycan array binding signal (z-score),[30],-0.852
same,glycan array binding signal (z-score),[31],-1.5
same,glycan array binding signal (z-score),[32],0.083
